In US6177404A (Merck & Co., Inc., priority 1998, dated 2001):
At least one peptide structure holds a part that was inferred or is arguable (an end, a ring closure or a residue). Peptide text beside a SMILES is read from it. * marks the point of attachment. Doxorubicin(3'-N) = COc1cccc2c1C(=O)c1c(O)c3c(c(O)c1C2=O)C[C@@](O)(C(=O)CO)C[C@@H]3O[C@H]1C[C@H](N*)[C@H](O)[C@H](C)O1

System: LNCaP prostate tumor cells
Assay: In vitro Alamar Blue cytotoxicity assay of non-cleavable oligopeptide-doxorubicin conjugates
Assay type: cell-based, human
Conditions: FIG. 4 legend; compared with doxorubicin EC50 0.3 μM
Protocol: The cytotoxicities of the non-cleaveable oligopeptide-doxorubicin conjugates, prepared as described in Example 4, against a line of cells which is known to be killed by unmodified doxorubicin were assessed with an Alamar Blue assay. Specifically, cell cultures of LNCaP prostate tumor cells, which are a human metastatic prostate adenocarcinoma isolated from a needle biopsy of a lymph node (LNCaP.FGC: American Type Culture Collection, ATCC CRL 1740), or DuPRO cells in 96 well plates were diluted with medium containing various concentrations of a given conjugate (final plate well volume of 200 μl). The cells were incubated for 3 days at 37° C. and then 20 μl of Alamar Blue was added to the assay well. The cells were further incubated and the assay plates were read on a EL-310 ELISA reader at the dual wavelengths of 570 and 600 nm at 4 and 7 hours after addition of Alamar Blue. Relative percentage viability at the various concentration of conjugate tested was then calculated versus control (no conjugate) cultures. Cytotoxicities of unmodified doxorubicin and unmodified oligopeptide were also assessed.

## COc1cccc2c1C(=O)c1c(O)c3c(c(O)c1C2=O)C[C@@](O)(C(=O)CO)C[C@@H]3O[C@H]1C[C@H](NC(=O)[C@H](C)NC(=O)[C@H](CO)NC(=O)[C@H](C)NC(=O)CNC(=O)[C@@H](NC(=O)[C@@H]2CCCN2C(=O)CNC(=O)[C@H](C)NC(C)=O)[C@@H](C)O)[C@H](O)[C@H](C)O1 [Compound 12d] (Ac-AGPTGASA-{Doxorubicin(3'-N)})
  EC50 reduced relative to doxorubicin (fold): greater than 300 fold
